Experimental findings from PMC7215681 are described below.

The chains behind the UniProt entries cited, without tags or fusion partners. Where a name states a change or a piece, a line headed by the entry shows the natural chain unless it says otherwise.
UniProt P22199: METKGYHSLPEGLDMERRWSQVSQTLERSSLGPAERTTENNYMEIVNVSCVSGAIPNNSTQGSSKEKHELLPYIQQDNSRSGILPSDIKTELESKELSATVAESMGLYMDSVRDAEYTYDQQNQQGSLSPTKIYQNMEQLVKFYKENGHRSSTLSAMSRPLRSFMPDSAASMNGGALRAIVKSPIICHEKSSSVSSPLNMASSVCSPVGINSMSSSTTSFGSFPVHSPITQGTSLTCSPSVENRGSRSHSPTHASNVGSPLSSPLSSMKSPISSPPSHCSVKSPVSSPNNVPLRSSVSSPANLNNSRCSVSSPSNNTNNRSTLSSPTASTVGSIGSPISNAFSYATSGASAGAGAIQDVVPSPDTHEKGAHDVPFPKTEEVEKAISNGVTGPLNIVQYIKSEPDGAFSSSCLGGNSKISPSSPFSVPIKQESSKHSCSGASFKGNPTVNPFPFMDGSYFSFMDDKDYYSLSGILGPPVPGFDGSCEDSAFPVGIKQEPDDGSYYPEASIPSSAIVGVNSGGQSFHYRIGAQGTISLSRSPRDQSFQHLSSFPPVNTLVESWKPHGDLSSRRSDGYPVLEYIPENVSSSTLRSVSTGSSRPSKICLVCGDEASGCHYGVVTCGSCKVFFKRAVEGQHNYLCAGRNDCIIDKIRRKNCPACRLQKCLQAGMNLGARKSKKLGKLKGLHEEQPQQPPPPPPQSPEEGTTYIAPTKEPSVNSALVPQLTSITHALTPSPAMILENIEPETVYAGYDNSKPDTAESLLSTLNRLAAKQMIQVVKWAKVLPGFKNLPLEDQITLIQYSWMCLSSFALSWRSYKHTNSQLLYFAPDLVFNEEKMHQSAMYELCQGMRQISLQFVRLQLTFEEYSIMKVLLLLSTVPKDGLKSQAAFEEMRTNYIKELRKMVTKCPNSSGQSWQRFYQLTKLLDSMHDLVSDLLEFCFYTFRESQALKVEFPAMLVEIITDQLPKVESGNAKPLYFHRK
UniProt P34947: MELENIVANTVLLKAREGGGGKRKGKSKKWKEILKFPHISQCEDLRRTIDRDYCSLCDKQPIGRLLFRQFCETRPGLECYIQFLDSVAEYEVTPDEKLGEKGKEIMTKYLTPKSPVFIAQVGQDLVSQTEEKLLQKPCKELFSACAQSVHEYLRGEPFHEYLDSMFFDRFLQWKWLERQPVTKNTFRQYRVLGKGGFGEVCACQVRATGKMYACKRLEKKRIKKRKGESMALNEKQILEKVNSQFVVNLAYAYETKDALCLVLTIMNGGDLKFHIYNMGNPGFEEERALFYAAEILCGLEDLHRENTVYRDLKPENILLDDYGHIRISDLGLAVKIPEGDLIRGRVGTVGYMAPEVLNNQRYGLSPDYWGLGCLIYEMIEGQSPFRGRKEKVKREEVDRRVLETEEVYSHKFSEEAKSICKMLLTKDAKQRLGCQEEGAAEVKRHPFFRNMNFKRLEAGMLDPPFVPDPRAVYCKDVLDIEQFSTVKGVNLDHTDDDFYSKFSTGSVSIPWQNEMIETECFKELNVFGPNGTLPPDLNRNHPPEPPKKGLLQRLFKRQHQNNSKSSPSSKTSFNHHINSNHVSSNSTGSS

No constants are given. Whether binding was seen depends on the method and setting. In cells and extracts the contact can be indirect.

This assay concerns the target mineralocorticoid receptor (rat (endogenous in H9c2)) (UniProt P22199). In words: co-IP; H9c2 cells overexpressing ΔNES-GRK5, whole cell lysates; no figure cited.

Turning to “dominant negative GRK5 mutant lacking a nuclear export sequence (ΔNES-GRK5) (from UniProt P34947) (enzyme)”, the binding result was “no binding”.
